No constants are given. Whether binding was seen depends on the method and setting. In cells and extracts the contact can be indirect. Some results given as binding are weak or reduced against the parent protein; the word gives no strength.
Target: GST-tagged wild-type β-catenin fusion protein (UniProt P35222)
Assay: pull-down; bead-bound GST-β-catenin constructs (20 uL) incubated with 500 µg protein of VDR145+/+ whole cell lysate for 4 hours at 4°C; three washes with cold RIPA buffer; western blot for TCF-4; only the target purified

Protein sequences, listed by entry. Tags and fused reporters are not part of them.
UniProt P35222: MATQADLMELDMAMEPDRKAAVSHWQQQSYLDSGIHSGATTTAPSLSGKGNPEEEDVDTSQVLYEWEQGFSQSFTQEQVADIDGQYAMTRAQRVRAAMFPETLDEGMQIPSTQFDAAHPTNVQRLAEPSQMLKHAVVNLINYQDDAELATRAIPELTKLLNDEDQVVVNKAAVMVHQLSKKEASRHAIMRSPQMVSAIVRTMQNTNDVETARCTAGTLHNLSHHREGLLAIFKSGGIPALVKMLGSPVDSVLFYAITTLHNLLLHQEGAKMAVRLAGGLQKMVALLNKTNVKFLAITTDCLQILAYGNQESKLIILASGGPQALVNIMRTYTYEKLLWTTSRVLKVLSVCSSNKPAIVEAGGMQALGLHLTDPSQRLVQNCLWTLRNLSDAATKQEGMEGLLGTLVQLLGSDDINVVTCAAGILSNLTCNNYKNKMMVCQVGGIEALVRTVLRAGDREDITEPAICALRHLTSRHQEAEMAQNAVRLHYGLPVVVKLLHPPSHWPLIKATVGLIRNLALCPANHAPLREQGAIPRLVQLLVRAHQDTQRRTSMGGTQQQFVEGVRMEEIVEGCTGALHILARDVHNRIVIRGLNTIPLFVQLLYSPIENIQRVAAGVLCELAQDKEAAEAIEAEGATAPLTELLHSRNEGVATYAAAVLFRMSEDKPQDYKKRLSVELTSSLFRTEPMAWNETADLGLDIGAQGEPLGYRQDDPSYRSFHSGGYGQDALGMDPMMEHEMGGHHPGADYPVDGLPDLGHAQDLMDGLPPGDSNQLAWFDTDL
UniProt Q924A0: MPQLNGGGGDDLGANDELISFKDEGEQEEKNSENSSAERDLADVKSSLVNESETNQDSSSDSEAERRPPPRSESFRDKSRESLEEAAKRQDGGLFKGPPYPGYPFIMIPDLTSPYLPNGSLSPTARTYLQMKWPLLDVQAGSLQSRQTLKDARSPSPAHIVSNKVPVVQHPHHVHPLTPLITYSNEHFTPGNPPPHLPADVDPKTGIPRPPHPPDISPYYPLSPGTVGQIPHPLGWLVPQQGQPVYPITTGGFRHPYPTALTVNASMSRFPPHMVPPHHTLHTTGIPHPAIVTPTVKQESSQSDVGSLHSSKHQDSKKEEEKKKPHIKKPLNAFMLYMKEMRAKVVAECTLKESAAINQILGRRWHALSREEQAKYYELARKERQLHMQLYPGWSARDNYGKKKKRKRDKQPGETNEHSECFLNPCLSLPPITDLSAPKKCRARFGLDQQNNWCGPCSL

TCF-4 (gene name TCF7L2) (from UniProt Q924A0 1-459)
binding: binds
